Laboratory results as given in the supplement of paper PMC10994270.
Some of the results follow.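 The calls were made as follows: active = probability of classifying as wild-type above 0.505; inactive = 0.505 or below.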 Repeats are few or missing, and single values can be far off.

Test system: SORL1-/- neural progenitor cells (hiPSC WTSIi004-B derived)
Assay: probability of classification as wild-type phenotype (neural network, relative to DMSO-treated WT vs SORL1-/- controls) (fraction); higher = more similar to wild-type morphology (phenotypic rescue)
Details: 24 h
[1] = 1000 nM, SORL1-/- sub-clone: XE10
[2] = 100 nM, SORL1-/- sub-clone: WB8
[3] = 100 nM, SORL1-/- sub-clone: WC7
[4] = 100 nM, SORL1-/- sub-clone: XE10
[5] = 300 nM, SORL1-/- sub-clone: WB8
[6] = 300 nM, SORL1-/- sub-clone: WC7
[7] = 300 nM, SORL1-/- sub-clone: XE10
[8] = 1000 nM, SORL1-/- sub-clone: WB8
[9] = 1000 nM, SORL1-/- sub-clone: WC7

Row | SMILES | probability [1] | probability [2] | probability [3] | probability [4] | probability [5] | probability [6] | probability [7] | probability [8] | probability [9]
1 | CCN1CCN(Cc2ccc(Nc3ncc(F)c(-c4cc(F)c5nc(C)n(C(C)C)c5c4)n3)nc2)CC1 [Abemaciclib] | active: 0.551 |  |  |  |  |  |  |  | 
2 | CC1=C(/C=C/C(C)=C/C=C/C(C)=C/CO)C(C)(C)CCC1 [Retinol] | active: 0.708 |  |  |  |  |  |  |  | 
3 | CC(C)C[C@H](NC(=O)CNC(=O)c1cc(Cl)ccc1Cl)B1OC(=O)CC(CC(=O)O)(C(=O)O)O1 (stereo not given in full) |  | active: 0.999 | active: 0.928 | active: 0.738 | active: 0.936 | active: 0.904 | active: 0.932 | active: 0.671 | active: 0.754
4 | Cl.Nc1ccn([C@@H]2O[C@H](CO)[C@@H](O)C2(F)F)c(=O)n1 [Gemcitabine HCl] | active: 0.782 | active: 0.952 | active: 0.999 | active: 0.713 | active: 0.677 | active: 0.986 | active: 0.696 | active: 0.995 | active: 0.747
5 | O=C1c2c(O)ccc(O)c2C(=O)c2c(NCCNCCO)ccc(NCCNCCO)c21 [Mitoxantrone] | active: 0.661 | active: 0.999 | active: 0.625 | active: 0.973 | active: 0.558 |  |  | active: 0.996 | active: 0.758
6 | CC(=O)c1c(C)c2cnc(Nc3ccc(N4CCNCC4)cn3)nc2n(C2CCCC2)c1=O.O=S(=O)(O)CCO [Palbociclib Isethionate] |  |  | inactive: 0.502 |  |  | active: 0.596 |  |  | 
7 | COc1cccc2c1C(=O)c1c(O)c3c(c(O)c1C2=O)C[C@@](O)(C(=O)CO)C[C@@H]3O[C@H]1C[C@H](N)[C@H](O)[C@H](C)O1.Cl [Doxorubicin hydrochloride] | active: 0.84 |  | active: 0.995 |  | active: 0.6 |  | active: 0.78 | active: 0.982 | active: 0.994
8 | CC[C@@]1(O)C(=O)OCc2c1cc1n(c2=O)Cc2cc3c(CN(C)C)c(O)ccc3nc2-1 [Topotecan] |  | active: 0.918 | active: 0.871 | active: 0.794 | active: 0.923 | active: 0.855 | active: 0.745 | active: 0.881 | active: 0.993
9 | COc1cc(NS(C)(=O)=O)ccc1Nc1c2ccccc2nc2ccccc12 [Amsacrine] | active: 0.663 |  | active: 0.814 |  |  | active: 0.66 | active: 0.891 |  | active: 0.737
10 | COc1cc([C@@H]2c3cc4c(cc3[C@@H](O[C@@H]3O[C@@H]5CO[C@@H](c6cccs6)O[C@H]5[C@H](O)[C@H]3O)[C@H]3COC(=O)[C@H]23)OCO4)cc(OC)c1O [Teniposide] | active: 0.948 | active: 0.953 | active: 0.785 |  |  | active: 0.925 | active: 0.88 | active: 0.653 | 
11 | CC[C@]1(O)C[C@H]2C[N@@](CCc3c([nH]c4ccccc34)[C@@](C(=O)OC)(c3cc4c(cc3OC)N(C)[C@H]3[C@@](O)(C(=O)OC)[C@H](OC(C)=O)[C@]5(CC)C=CCN6CC[C@]43[C@@H]65)C2)C1.O=S(=O)(O)O [Vinblastine sulfate] |  | active: 0.998 | inactive: 0.5 |  |  |  |  |  | 
12 | CC(=O)c1c(C)c2cnc(Nc3ccc(N4CCNCC4)cn3)nc2n(C2CCCC2)c1=O.Cl [Palbociclib hydrochloride] |  |  |  | active: 0.637 |  |  |  | active: 0.74 | 
13 | CC(C)C[C@H](NC(=O)[C@H](Cc1ccccc1)NC(=O)c1cnccn1)B(O)O [Bortezomib] | active: 0.997 | active: 0.99 | active: 0.986 | active: 0.615 | active: 0.858 | active: 0.976 | active: 0.746 | active: 0.999 | active: 1
14 | NCCNc1ccc(NCCN)c2c1C(=O)c1ccncc1C2=O.O=C(O)/C=C\C(=O)O.O=C(O)/C=C\C(=O)O [Pixantrone dimaleate] |  | active: 0.681 | active: 0.513 | active: 0.714 | active: 0.742 | active: 0.791 |  | active: 0.656 | 
15 | Nc1nc(Cl)nc2c1ncn2[C@@H]1O[C@H](CO)[C@@H](O)[C@@H]1F [Clofarabine] |  |  | active: 0.583 | active: 0.669 |  | active: 1 | active: 0.512 | active: 0.826 | active: 0.996
16 | Cl.N=c1ccn2c(n1)O[C@H]1[C@H](O)[C@@H](CO)O[C@H]12 [Cyclocytidine hydrochloride] | active: 0.606 | active: 0.747 | active: 0.733 |  | inactive: 0.502 | active: 0.719 | active: 0.983 | active: 0.747 | 

2 records picked at random from the list so far, as already listed:
Row | SMILES | probability [1] | probability [2] | probability [3] | probability [4] | probability [5] | probability [6] | probability [7] | probability [8] | probability [9]
13 | CC(C)C[C@H](NC(=O)[C@H](Cc1ccccc1)NC(=O)c1cnccn1)B(O)O [Bortezomib] | active: 0.997 | active: 0.99 | active: 0.986 | active: 0.615 | active: 0.858 | active: 0.976 | active: 0.746 | active: 0.999 | active: 1
2 | CC1=C(/C=C/C(C)=C/C=C/C(C)=C/CO)C(C)(C)CCC1 [Retinol] | active: 0.708 |  |  |  |  |  |  |  | 
